Experimental data as given in publication PMC8384837.
Substitutions are numbered along the chain they refer to. This is one part of the list. For some assays here: At the low end of the ranking the order means little.

Key:
Conditions in all cases: yeast three-hybrid, YBZ-1, SC-Leu-His + 0.5 mM 3-AT, 4 days
[1] = biological target: T1, PUM1 PUF domain R1-GMR S863G + R864M + Q867R (Homo sapiens) (UniProt Q14671)
T1 sequence: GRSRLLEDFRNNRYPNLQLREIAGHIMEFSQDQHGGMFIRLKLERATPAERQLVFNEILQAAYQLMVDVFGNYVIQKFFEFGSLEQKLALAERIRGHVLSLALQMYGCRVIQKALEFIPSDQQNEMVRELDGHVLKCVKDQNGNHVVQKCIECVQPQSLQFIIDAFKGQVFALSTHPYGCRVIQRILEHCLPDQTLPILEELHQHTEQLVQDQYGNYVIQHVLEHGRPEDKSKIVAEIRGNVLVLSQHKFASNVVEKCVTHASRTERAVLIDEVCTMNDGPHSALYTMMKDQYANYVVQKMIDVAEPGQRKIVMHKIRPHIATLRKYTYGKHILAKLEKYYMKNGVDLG

[2] = biological target: T2, PUM1 PUF domain R1-GRS S863G + Q867S (UniProt Q14671)
T2 sequence: T1 sequence with M37R, R40S

[3] = biological target: T3, PUM1 PUF domain R1-GVR S863G + R864V + Q867R (Homo sapiens) (UniProt Q14671)
T3 sequence: T1 sequence with M37V

[4] = biological target: T4, PUM1 PUF domain R1-GWR S863G + R864W + Q867R (UniProt Q14671)
T4 sequence: T1 sequence with M37W

[5] = biological target: T5, PUM1 PUF domain R1-GYR S863G + R864Y + Q867R (Homo sapiens) (UniProt Q14671)
T5 sequence: T1 sequence with M37Y

[6] = biological target: T6, PUM1 PUF domain R1-HGR S863H + R864G + Q867R (Homo sapiens) (UniProt Q14671)
T6 sequence: T1 sequence with G36H, M37G

[7] = biological target: T7, PUM1 PUF domain R1-IRR S863I + Q867R (Homo sapiens) (UniProt Q14671)
T7 sequence: T1 sequence with G36I, M37R

[8] = biological target: T8, PUM1 PUF domain R1-IWR S863I + R864W + Q867R (UniProt Q14671)
T8 sequence: T1 sequence with G36I, M37W

[9] = biological target: T9, PUM1 PUF domain R1-KAR S863K + R864A + Q867R (Homo sapiens) (UniProt Q14671)
T9 sequence: T1 sequence with G36K, M37A

[10] = biological target: T10, PUM1 PUF domain R1-KCS S863K + R864C + Q867S (UniProt Q14671)
T10 sequence: T1 sequence with G36K, M37C, R40S

[11] = biological target: T11, PUM1 PUF domain R1-KFV S863K + R864F + Q867V (Homo sapiens) (UniProt Q14671)
T11 sequence: T1 sequence with G36K, M37F, R40V

[12] = biological target: T12, PUM1 PUF domain R1-KGR S863K + R864G + Q867R (Homo sapiens) (UniProt Q14671)
T12 sequence: T1 sequence with G36K, M37G

[13] = biological target: T13, PUM1 PUF domain R1-KMR S863K + R864M + Q867R (UniProt Q14671)
T13 sequence: T1 sequence with G36K

[14] = biological target: T14, PUM1 PUF domain R1-KRD S863K + Q867D (Homo sapiens) (UniProt Q14671)
T14 sequence: T1 sequence with G36K, M37R, R40D

[15] = biological target: T15, PUM1 PUF domain R1-KRG S863K + Q867G (Homo sapiens) (UniProt Q14671)
T15 sequence: T1 sequence with G36K, M37R, R40G

[16] = biological target: T16, PUM1 PUF domain R1-KRR S863K + Q867R (Homo sapiens) (UniProt Q14671)
T16 sequence: T1 sequence with G36K, M37R

[17] = biological target: T17, PUM1 PUF domain R1-KFR S863K + R864F + Q867R (Homo sapiens) (UniProt Q14671)
T17 sequence: T1 sequence with G36K, M37F

[18] = biological target: T18, PUM1 PUF domain R1-GRS S863G + Q867S (Homo sapiens) (UniProt Q14671)
T18 sequence: T1 sequence with M37R, R40S

[19] = biological target: T19, PUM1 PUF domain R1-KIR S863K + R864I + Q867R (Homo sapiens) (UniProt Q14671)
T19 sequence: T1 sequence with G36K, M37I

[20] = biological target: T20, PUM1 PUF domain R1-KLS S863K + R864L + Q867S (Homo sapiens) (UniProt Q14671)
T20 sequence: T1 sequence with G36K, M37L, R40S

Q: For “GGCUAGAACUAGUGGAUCCCCCGGCGCCCGGCGGCUCGAGCCCGGGUAAGUGUAAAUGGUCUGCAUGCCGCCGGGCGCCAUGCCUGCAGGUCGACUCUAGAAAACAUG”, which binding signal (log2 enrichment (interaction score)) [1] is on record?
A: -0.3

Q: And the binding signal (log2 enrichment (interaction score)) [2]?
A: -4.25

Q: What about the binding signal (log2 enrichment (interaction score)) [3] of the same sequence?
A: 1.24

Q: And the binding signal (log2 enrichment (interaction score)) [4]?
A: -4.24

Q: What about the binding signal (log2 enrichment (interaction score)) [5] of the same sequence?
A: -0.1

Q: What about the binding signal (log2 enrichment (interaction score)) [6] of the same sequence?
A: -0.05

Q: What about the binding signal (log2 enrichment (interaction score)) [7] of the same sequence?
A: -0.98

Q: And the binding signal (log2 enrichment (interaction score)) [8]?
A: -2.95

Q: And the binding signal (log2 enrichment (interaction score)) [9]?
A: -1.6

Q: What about the binding signal (log2 enrichment (interaction score)) [10] of the same sequence?
A: -8.13

Q: And the binding signal (log2 enrichment (interaction score)) [11]?
A: -0.13

Q: And the binding signal (log2 enrichment (interaction score)) [12]?
A: -1

Q: What about the binding signal (log2 enrichment (interaction score)) [13] of the same sequence?
A: -2.3

Q: What about the binding signal (log2 enrichment (interaction score)) [14] of the same sequence?
A: -0.24

Q: What about the binding signal (log2 enrichment (interaction score)) [15] of the same sequence?
A: -1.69

Q: What about the binding signal (log2 enrichment (interaction score)) [16] of the same sequence?
A: -0.02

Q: With “GGCUAGAACUAGUGGAUCCCCCGGCGCCCGGCGGCUCGAGCCCGGGUAAGUGUAAAUCGUCUGCAUGCCGCCGGGCGCCAUGCCUGCAGGUCGACUCUAGAAAACAUG” as the sequence, how does the binding signal (log2 enrichment (interaction score)) [17] read?
A: -1.94

Q: Which results are given for “GGCUAGAACUAGUGGAUCCCCCGGCGCCCGGCGGCUCGAGCCCGGGUAAGUGUAAAUUGUCUGCAUGCCGCCGGGCGCCAUGCCUGCAGGUCGACUCUAGAAAACAUG”?
A: binding signal (log2 enrichment (interaction score)) [18]: 0.5; binding signal (log2 enrichment (interaction score)) [19]: 1.03; binding signal (log2 enrichment (interaction score)) [20]: -0.46
